# Measured values from PMC7758530.
# Chains of the proteins cited; added tags and fusions are not shown.
# UniProt O35303: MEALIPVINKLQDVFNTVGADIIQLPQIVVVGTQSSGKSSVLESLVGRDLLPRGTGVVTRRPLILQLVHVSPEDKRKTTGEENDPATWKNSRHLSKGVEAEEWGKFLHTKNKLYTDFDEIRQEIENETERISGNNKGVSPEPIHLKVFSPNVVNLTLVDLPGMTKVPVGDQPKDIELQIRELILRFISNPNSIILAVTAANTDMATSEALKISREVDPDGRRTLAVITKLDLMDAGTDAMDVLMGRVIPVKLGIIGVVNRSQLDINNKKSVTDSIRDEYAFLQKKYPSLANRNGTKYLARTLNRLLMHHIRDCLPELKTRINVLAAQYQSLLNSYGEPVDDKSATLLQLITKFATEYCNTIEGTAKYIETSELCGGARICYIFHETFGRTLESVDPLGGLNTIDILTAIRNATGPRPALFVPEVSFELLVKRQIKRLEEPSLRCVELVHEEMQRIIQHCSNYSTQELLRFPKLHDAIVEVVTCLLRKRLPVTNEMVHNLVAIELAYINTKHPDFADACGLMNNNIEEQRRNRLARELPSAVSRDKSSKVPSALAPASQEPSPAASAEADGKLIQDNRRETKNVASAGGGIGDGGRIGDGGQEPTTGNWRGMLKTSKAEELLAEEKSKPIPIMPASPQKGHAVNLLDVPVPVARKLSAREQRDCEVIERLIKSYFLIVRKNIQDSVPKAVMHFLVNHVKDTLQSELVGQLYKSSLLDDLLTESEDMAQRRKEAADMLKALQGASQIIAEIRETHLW
# These are yes or no findings as the source states them, for the method shown. Binding seen in cells or lysates may run through a third protein. Some binding calls cover weakened binding; strength is not graded here.
# B1: mitochondrial fission factor (protein, UniProt Q4KM98 1-218)
# chain: MAEISRIQYEMEYTEGISQRMRVPEKLKVAPPNADLEQGFQDGVPNASVIMQVPERIVVTGNNEDISFSRPADLDLIQSTPFKPLALKTPPRVLTLSERPLDFLDLERPPPTPQSEEIRAVGRLKRERSMSENAVRQNGQLVRNDSMYGISSLDAAVEGASEDMSVVDAASLRRQIIKLNRRLQLLEEENKERAKREMVMYSITVAFWLLNSWLWFRR
# Biological target: dynein-related protein 1 (rat (endogenous in H9c2)) (UniProt O35303)
# Assay: co-IP; H9c2 cell lysates (control, H/R, H/R + 100 nM Vit D, Vit D); 1 ug antibody, protein A/G Sepharose beads overnight at 4 C; Western blot
binder,measurement,value
B1,binding,binds
